Laboratory results reported in US20100183524A1, “ANTIOXIDANT COMPOSITIONS FOR SOFT ORAL TISSUE AND METHODS OF FORMULATION AND USE THEREOF” (Perio Sciences, LLC, priority 2008, published 2010).

What was measured:
[1] = system: Caspase 3 activity in human periodontal ligament (HPDL) cells; experiment: Apoptosis assay (Caspase 3 activity), HPDL; assay type: cell-based; settings: Staurosporine 1 μM alone or with DEVD-Z-VAD-FMK 50 μM
Protocol: (§1) Caspases are a family of proteases that mediate apoptosis. […] Cells were then washed with PBS and 50 μL of lysis buffer was added to each well. Cells were lysed using freeze-thaw cycles at -20° C. overnight. Cell lysates were then incubated for 15 minutes on ice and centrifuged at 15,000 g for 20 minutes. Then the amount of liberated pNA was detected, indicating the about of caspase activity.

[2] = system: Caspase 3 activity in human gingival fibroblasts (HGF); experiment: Apoptosis assay (Caspase 3 activity), HGF; assay type: cell-based; settings: Staurosporine 1 μM alone or with DEVD-Z-VAD-FMK 50 μM
Protocol: as §1

SMILES: CN[C@@H]1C[C@H]2O[C@@](C)([C@@H]1OC)n1c3ccccc3c3c4c(c5c6ccccc6n2c5c31)C(=O)NC4 [st, Staurosporine]
- Caspase Activity in HPDL, apoptosis inducer / inhibitor controls [1]: 153
- Caspase Activity in HGF, apoptosis inducer / inhibitor controls [2]: 208
